Data as given in PubChem BioAssay AID1259254 (NCATS, 2017).

Test: 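Finding genes that stop cells copying their DNA twice in one cycle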 (primary screen)
Cells: human HCT116 colorectal cancer cells
Knock-down reagent: single siRNA against human genes
Time to read-out: 3 days
Measured: 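Imaged Hoechst DNA stain sorts each cell into a cycle phase by DNA amount; per plate, G2 fraction set to 0% for non-targeting and 100% for GMNN siRNA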
Reading the numbers: G2 robust z-score and G2 cells, % of GMNN control: higher = more G2 cells, more excess DNA replication; raw share of cells in G2: higher = larger share of cells with G2 DNA content
Active means: 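An siRNA counts as active if its G2 robust z-score lies at least 5 MADs above the screen median; here such calls match roughly 38% of GMNN control or more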
Here is one part, drawn at random, of about 59,000 reagents tested. Of all reagents, about 1,550 (2.6%) were called active. 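G2 share is only a proxy for re-replication; each gene was hit by three separate siRNAs, and active genes were retested.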 The raw values are shown without normalisation. A number with no mark means an inactive call. Reagents against one gene are numbered here. Not given: the amount of reagent.

gene	reagent no.	G2 robust z-score	G2 cells, % of GMNN control	raw share of cells in G2 (%)
SRFBP1 (GeneID 153443)	1	-0.666	-1.72	2.99
SRFBP1 (GeneID 153443)	2	1.05	10.3	6.42
SRFBP1 (GeneID 153443)	3	0.0134	3.06	3.73
ALDH7A1 (GeneID 501)	1	0.397	5.76	6.68
ALDH7A1 (GeneID 501)	2	5.4 (active)	40.9	19.6
ALDH7A1 (GeneID 501)	3	-0.492	-0.492	3.81
MYCBP (GeneID 26292)	1	-0.454	-0.224	3.56
MYCBP (GeneID 26292)	2	-0.389	0.227	2.87
MYCBP (GeneID 26292)	3	-0.613	-1.34	5.3
ARMCX2 (GeneID 9823)	1	0.383	5.66	7.89
ARMCX2 (GeneID 9823)	2	-0.999	-4.06	2.25
ARMCX2 (GeneID 9823)	3	0.706	7.93	6.29
GJB1 (GeneID 2705)	1	1.09	10.7	7.69
GJB1 (GeneID 2705)	2	-0.595	-1.22	4.28
GJB1 (GeneID 2705)	3	4.39	33.8	15.4
RRH (GeneID 10692)	1	-0.249	1.21	6.28
RRH (GeneID 10692)	2	1.63	14.5	9.57
RRH (GeneID 10692)	3	-0.711	-2.03	2.65
GAB2 (GeneID 9846)	1	-0.798	-2.65	4.13
GAB2 (GeneID 9846)	2	-0.926	-3.55	2.46
GAB2 (GeneID 9846)	3	-0.481	-0.418	3.25
LMTK3 (GeneID 114783)	1	0.79	8.53	8.24
LMTK3 (GeneID 114783)	2	-0.803	-2.68	4.22
LMTK3 (GeneID 114783)	3	-0.317	0.735	3.92
TMEM200A (GeneID 114801)	1	-0.00999	2.9	5.25
TMEM200A (GeneID 114801)	2	1.46	13.3	7.29
TMEM200A (GeneID 114801)	3	0.158	4.08	3.01
RPL21P68 (GeneID 645452)	1	4.89	37.4	17.9
RPL21P68 (GeneID 645452)	2	0.991	9.94	6.91
RPL21P68 (GeneID 645452)	3	1.47	13.3	7.27
SAA4 (GeneID 6291)	1	1.13	10.9	7.77
SAA4 (GeneID 6291)	2	2.51	20.6	12.1
SAA4 (GeneID 6291)	3	-0.825	-2.84	3.6
COPB2 (GeneID 9276)	1	4.3	33.2	16.9
COPB2 (GeneID 9276)	2	0.133	3.9	6.31
COPB2 (GeneID 9276)	3	4.44	34.2	16.9
H6PD (GeneID 9563)	1	0.0769	3.51	4.4
H6PD (GeneID 9563)	2	3.78	29.6	16.4
H6PD (GeneID 9563)	3	0.482	6.36	7.33
C9orf85 (GeneID 138241)	1	2.08	17.6	10.8
C9orf85 (GeneID 138241)	2	0.726	8.07	5.66
C9orf85 (GeneID 138241)	3	-0.685	-1.85	1.91
ARHGEF1 (GeneID 9138)	1	-0.083	2.38	5.56
ARHGEF1 (GeneID 9138)	2	-0.501	-0.555	5.07
ARHGEF1 (GeneID 9138)	3	0.835	8.84	8.55
CDH22 (GeneID 64405)	1	-0.0659	2.5	5.13
CDH22 (GeneID 64405)	2	4.35	33.5	16.2
CDH22 (GeneID 64405)	3	0.0924	3.62	7.14
RAB40C (GeneID 57799)	1	-0.346	0.533	5.87
RAB40C (GeneID 57799)	2	-0.622	-1.41	3.85
RAB40C (GeneID 57799)	3	0.256	4.77	5.96
SYT11 (GeneID 23208)	1	-0.903	-3.39	2.4
SYT11 (GeneID 23208)	2	-0.594	-1.21	5.45
SYT11 (GeneID 23208)	3	-0.844	-2.97	2.09
EXOSC8 (GeneID 11340)	1	-0.12	2.13	4.59
EXOSC8 (GeneID 11340)	2	1.18	11.3	7.93
EXOSC8 (GeneID 11340)	3	1.18	11.3	10.9
RPS26P50 (GeneID 644934)	1	5.82 (active)	43.9	19.1
RPS26P50 (GeneID 644934)	2	2.6	21.2	9.33
RPS26P50 (GeneID 644934)	3	1.06	10.5	7.62
HTR1A (GeneID 3350)	1	-0.701	-1.96	5.14
HTR1A (GeneID 3350)	2	-0.5	-0.548	4.33
HTR1A (GeneID 3350)	3	0.429	5.99	5.11
SLK (GeneID 9748)	1	1.47	13.3	9.73
SLK (GeneID 9748)	2	-0.915	-3.47	3.93
SLK (GeneID 9748)	3	-0.368	0.378	3.8
LOC400576 (retired record) (GeneID 400576)	1	-0.165	1.8	5.54
LOC400576 (retired record) (GeneID 400576)	2	3.24	25.7	13.2
LOC400576 (retired record) (GeneID 400576)	3	0.0819	3.54	4.92
GSDMB (GeneID 55876)	1	-0.667	-1.72	3.67
GSDMB (GeneID 55876)	2	-0.589	-1.18	3.9
GSDMB (GeneID 55876)	3	-0.0711	2.47	3.81
SERPINI2 (GeneID 5276)	1	0.34	5.36	6.54
SERPINI2 (GeneID 5276)	2	0.0698	3.46	5.34
SERPINI2 (GeneID 5276)	3	2.28	19	9.21
FKBP15 (GeneID 23307)	1	0.541	6.77	6.96
FKBP15 (GeneID 23307)	2	1.38	12.7	9.43
FKBP15 (GeneID 23307)	3	0.668	7.67	5.98
ERFL (GeneID 390937)	1	-1.11	-4.84	2.05
ERFL (GeneID 390937)	2	0.324	5.24	5.6
ERFL (GeneID 390937)	3	3.9	30.4	17.4
PCDHGC3 (GeneID 5098)	1	-0.563	-0.997	2.86
PCDHGC3 (GeneID 5098)	2	1.25	11.8	9.65
PCDHGC3 (GeneID 5098)	3	2.79	22.6	13.9
RPL7AP66 (GeneID 388474)	1	-0.183	1.68	4.35
RPL7AP66 (GeneID 388474)	2	2.09	17.6	11.1
RPL7AP66 (GeneID 388474)	3	2.14	18	12.4

Ordered by “G2 robust z-score” (lowest first): some entries from above.
gene	reagent no.	G2 robust z-score	G2 cells, % of GMNN control	raw share of cells in G2 (%)
MYCBP (GeneID 26292)	3	-0.613	-1.34	5.3
ALDH7A1 (GeneID 501)	3	-0.492	-0.492	3.81
MYCBP (GeneID 26292)	1	-0.454	-0.224	3.56
MYCBP (GeneID 26292)	2	-0.389	0.227	2.87
ALDH7A1 (GeneID 501)	2	5.4 (active)	40.9	19.6
